Measured values as given in US20030073199A1 (SCHERING, published 2003).
No constants are given. Whether binding was seen depends on the method and setting. Some results given as binding are weak or reduced against the parent protein; the word gives no strength. Tags and fused reporters may be left off the sequences shown.

Biological target: prokaryotic recombinant histidine-tagged AK155 (His-AK155) (human) (UniProt Q9NPH9)
Experiment: SDS-PAGE with and without heating in mercaptoethanol (about 36 kDa against about 19 kDa)

- binding: binds
B1: prokaryotic recombinant histidine-tagged AK155 (His-AK155) (ligand, not shown: small tags and cut ends)
chain: KHKQSSFTKSCYPRGTLSQAVDALYIKAAWLKATIPEDRIKNIRLLKKKTKKQFMKNCQFQEQLLSFFMEDVFGQLQLQGCKKIRFVEDFHSLRQKLSHCISCASSAREMKSITRMKRIFYRIGNKGIYKAISELDILLSWIKKLLESSQ
